Earlier results on one compound are cited in US5728885A, “Method of preparing the enantiomers of O-dimethyltramadol” (priority 1996, dated 1998).

For this data set the following is noted: J. Pharmacol. Exptl. Ther. 267, 331 (1993); cited from earlier work.

As to `COc1cccc([C@@]2(O)CCCC[C@@H]2CN(C)C)c1.Cl` (racemic) [racemic tramadol hydrochloride, (1RS, 2RS)-2-dimethylaminomethyl-1-(3-methoxy-phenyl)-cyclohexanol hydrochloride, reference compound], the inhibition of pain result is given as “strong inhibitor of pain”.
